The test has as its system lipopolysaccharide (LPS) stimulated peritoneal macrophages (MF). The test is described as follows: anti-inflammatory activity in LPS-stimulated peritoneal macrophages. In kind it is cell-based. Particulars: LPS-stimulated peritoneal macrophages freshly isolated from mice; increasing concentration 10^−10 to 10^−5 molar; in comparison to dexamethasone (DM); FIG. 5. The text has this: Under physiological conditions, the active ingredient is released from the active ingredient anion very slowly, over a period of several hours to several days, and is able to develop its activity at the locus of action. This is shown in FIG. 4 for slow release in a laboratory suspension. The active ingredient anions here may be selected from a very broad range in terms of composition, and cover a wide range of possible clinical pictures. In addition to the release of an active ingredient, the inorganic-organic hybrid compounds of the invention can be located by the fluorescence of an additionally incorporated fluorescent dye anion. […] In order to bring the nanoparticles in vivo to a specific locus of action, the inorganic-organic hybrid nanoparticles may additionally be functionalized with a peptide, antibody or oligonucleotide which is directed against a disease-specific target.

Turning to `C[C@H]1C[C@H]2[C@@H]3CCC4=CC(=O)C=C[C@]4(C)[C@@]3(F)[C@@H](O)C[C@]2(C)[C@@]1(O)C(=O)COP(=O)(O)O` [Compound 2, Betamethasone Phosphate], the anti-inflammatory activity result was “has an anti-inflammatory activity”.

Values taken from patent US20170112948A1, “Inorganic-organic hybrid compound” (Karlsruher Institut für Technologie, priority 2014, published 2017).
